We go through one molecule from paper PMC11725929.

These are yes or no findings as the source states them, for the method shown. Binding seen in cells or lysates may run through a third protein. Some binding calls cover weakened binding; strength is not graded here.

The target in the assay is T1, RNA helicase DHX30 (UniProt Q99PU8).
T1 sequence: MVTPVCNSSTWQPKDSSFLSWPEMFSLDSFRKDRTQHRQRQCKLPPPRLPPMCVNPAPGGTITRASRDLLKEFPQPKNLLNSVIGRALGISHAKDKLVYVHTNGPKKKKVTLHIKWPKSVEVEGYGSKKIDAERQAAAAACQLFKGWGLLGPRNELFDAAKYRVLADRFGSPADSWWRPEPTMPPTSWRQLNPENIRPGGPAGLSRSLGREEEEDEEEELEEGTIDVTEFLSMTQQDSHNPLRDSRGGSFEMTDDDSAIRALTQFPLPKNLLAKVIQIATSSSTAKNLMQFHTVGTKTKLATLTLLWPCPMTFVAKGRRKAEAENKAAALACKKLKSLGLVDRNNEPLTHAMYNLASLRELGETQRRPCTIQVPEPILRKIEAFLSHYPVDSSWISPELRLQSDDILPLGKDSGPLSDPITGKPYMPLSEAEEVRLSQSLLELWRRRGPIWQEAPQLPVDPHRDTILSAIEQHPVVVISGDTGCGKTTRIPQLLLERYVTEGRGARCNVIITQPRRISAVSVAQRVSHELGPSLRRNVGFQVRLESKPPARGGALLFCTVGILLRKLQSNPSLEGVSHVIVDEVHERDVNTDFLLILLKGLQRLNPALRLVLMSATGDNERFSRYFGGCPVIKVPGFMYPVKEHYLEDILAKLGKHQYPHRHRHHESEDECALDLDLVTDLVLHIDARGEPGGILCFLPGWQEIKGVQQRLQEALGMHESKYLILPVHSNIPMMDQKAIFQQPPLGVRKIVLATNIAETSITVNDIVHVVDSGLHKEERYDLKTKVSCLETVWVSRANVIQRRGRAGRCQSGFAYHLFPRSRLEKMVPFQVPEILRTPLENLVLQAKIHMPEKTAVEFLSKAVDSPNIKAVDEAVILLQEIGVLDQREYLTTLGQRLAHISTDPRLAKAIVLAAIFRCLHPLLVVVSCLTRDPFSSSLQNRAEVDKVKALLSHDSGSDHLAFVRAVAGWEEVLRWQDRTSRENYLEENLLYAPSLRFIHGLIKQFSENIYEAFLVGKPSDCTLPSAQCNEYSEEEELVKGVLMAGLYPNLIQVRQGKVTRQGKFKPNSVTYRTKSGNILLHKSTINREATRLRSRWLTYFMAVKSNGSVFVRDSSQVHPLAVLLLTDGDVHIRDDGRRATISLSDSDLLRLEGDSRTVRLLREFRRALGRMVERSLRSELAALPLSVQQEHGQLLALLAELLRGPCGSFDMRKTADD
The experiment in a line: co-IP; coimmunoprecipitation between EndoG and DHX30; cells, bait, antibodies and buffer not told.

B1: Endonuclease G (protein, UniProt O08600 45-294)
chain: ADLPALPGGPAGGTGELAKYGLPGVAQLRSRESYVLSYDPRTRGALWVLEQLRPERLRGDGDRSACDFREDDSVHAYHRATNADYRGSGFDRGHLAAAANHRWSQRAMDDTFYLSNVAPQVPHLNQNAWNNLERYSRSLTRTYQNVYVCTGPLFLPRTEADGKSYVKYQVIGKNHVAVPTHFFKVLILEAAGGQIELRSYVMPNAPVDETIPLERFLVPIESIERASGLLFVPNILARAGNLKAITAGSK
As to B1, the binding result was “binds”.
